Assay [1] has as its target T1, AC9-miniTurbo-FLAG fusion protein (human adenylyl cyclase 9) (human) (UniProt O60503).
T1 sequence: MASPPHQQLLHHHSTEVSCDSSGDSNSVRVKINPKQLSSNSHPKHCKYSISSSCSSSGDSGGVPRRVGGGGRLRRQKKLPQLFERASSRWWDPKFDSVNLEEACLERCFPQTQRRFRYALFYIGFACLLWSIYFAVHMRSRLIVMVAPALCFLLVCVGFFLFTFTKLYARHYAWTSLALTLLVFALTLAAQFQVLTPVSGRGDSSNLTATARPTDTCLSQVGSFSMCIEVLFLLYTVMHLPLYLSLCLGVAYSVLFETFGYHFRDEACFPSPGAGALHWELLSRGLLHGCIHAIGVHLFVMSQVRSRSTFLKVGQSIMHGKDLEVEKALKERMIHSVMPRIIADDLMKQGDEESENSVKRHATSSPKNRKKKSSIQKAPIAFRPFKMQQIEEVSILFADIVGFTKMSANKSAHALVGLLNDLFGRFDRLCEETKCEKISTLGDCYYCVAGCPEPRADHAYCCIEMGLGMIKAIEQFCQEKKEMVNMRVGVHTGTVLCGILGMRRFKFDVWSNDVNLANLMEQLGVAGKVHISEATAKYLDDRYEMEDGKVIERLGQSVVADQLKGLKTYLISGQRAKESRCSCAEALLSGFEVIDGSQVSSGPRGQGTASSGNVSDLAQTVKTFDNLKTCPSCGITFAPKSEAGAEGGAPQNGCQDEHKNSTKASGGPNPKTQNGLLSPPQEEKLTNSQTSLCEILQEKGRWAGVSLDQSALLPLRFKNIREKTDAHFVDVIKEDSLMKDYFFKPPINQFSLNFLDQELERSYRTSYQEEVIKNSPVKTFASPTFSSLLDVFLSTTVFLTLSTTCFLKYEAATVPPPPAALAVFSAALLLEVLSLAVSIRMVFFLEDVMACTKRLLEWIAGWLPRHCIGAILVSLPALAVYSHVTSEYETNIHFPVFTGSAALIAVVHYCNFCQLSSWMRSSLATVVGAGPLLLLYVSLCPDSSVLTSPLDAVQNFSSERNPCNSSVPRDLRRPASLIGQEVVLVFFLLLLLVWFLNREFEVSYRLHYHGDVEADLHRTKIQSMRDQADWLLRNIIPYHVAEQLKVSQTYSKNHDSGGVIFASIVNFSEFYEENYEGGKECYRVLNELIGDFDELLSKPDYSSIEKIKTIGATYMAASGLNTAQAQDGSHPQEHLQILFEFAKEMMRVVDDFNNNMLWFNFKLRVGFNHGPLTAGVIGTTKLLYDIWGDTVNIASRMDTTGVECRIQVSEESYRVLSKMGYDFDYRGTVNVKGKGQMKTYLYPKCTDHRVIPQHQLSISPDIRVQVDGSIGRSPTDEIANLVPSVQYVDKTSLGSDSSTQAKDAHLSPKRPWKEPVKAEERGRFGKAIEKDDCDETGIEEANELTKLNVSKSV
Put plainly: proximity labelling; BioID: AC-miniTurbo-FLAG baits virally expressed in primary neonatal rat cardiomyocytes, vehicle or 48 h norepinephrine, 50 μM biotin 3 h, RIPA lysis, streptavidin pull-down, LC-MS/MS, SAINT score ≥0.7 against GFP-mT and uninfected controls.

Sequences of proteins named here, by UniProt entry; tags and fusion partners are left off. Residues count along the entry.
UniProt O95622: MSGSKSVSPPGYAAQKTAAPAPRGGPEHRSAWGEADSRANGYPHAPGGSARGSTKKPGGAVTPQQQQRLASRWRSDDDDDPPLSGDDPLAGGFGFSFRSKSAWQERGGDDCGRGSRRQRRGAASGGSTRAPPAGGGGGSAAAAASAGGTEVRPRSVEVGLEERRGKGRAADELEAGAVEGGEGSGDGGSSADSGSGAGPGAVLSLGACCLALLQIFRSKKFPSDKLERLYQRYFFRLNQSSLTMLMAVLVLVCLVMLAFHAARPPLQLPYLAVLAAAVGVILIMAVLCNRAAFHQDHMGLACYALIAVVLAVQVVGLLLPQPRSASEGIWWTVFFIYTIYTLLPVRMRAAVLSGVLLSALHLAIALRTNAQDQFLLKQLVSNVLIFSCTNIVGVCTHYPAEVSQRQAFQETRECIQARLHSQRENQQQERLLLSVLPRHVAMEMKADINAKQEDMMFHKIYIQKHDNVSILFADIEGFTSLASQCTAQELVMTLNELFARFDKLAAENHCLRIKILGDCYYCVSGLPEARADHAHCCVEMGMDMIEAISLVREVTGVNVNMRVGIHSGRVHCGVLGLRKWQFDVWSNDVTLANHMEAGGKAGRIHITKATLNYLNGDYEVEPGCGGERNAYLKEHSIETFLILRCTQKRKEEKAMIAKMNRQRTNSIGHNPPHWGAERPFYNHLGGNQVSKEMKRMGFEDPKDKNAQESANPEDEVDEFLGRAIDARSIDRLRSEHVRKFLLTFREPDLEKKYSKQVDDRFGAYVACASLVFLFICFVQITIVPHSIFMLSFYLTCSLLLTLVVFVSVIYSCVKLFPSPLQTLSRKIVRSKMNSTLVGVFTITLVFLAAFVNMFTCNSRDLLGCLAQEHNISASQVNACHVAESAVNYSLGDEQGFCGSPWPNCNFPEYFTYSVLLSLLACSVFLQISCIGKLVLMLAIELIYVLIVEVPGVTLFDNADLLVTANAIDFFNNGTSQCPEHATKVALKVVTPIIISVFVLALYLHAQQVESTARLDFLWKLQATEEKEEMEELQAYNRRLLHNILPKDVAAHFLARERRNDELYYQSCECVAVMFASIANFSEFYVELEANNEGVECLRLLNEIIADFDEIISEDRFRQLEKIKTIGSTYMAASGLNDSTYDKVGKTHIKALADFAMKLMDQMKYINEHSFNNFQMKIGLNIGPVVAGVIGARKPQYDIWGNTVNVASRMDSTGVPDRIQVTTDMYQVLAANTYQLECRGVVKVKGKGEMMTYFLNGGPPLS
UniProt O43306: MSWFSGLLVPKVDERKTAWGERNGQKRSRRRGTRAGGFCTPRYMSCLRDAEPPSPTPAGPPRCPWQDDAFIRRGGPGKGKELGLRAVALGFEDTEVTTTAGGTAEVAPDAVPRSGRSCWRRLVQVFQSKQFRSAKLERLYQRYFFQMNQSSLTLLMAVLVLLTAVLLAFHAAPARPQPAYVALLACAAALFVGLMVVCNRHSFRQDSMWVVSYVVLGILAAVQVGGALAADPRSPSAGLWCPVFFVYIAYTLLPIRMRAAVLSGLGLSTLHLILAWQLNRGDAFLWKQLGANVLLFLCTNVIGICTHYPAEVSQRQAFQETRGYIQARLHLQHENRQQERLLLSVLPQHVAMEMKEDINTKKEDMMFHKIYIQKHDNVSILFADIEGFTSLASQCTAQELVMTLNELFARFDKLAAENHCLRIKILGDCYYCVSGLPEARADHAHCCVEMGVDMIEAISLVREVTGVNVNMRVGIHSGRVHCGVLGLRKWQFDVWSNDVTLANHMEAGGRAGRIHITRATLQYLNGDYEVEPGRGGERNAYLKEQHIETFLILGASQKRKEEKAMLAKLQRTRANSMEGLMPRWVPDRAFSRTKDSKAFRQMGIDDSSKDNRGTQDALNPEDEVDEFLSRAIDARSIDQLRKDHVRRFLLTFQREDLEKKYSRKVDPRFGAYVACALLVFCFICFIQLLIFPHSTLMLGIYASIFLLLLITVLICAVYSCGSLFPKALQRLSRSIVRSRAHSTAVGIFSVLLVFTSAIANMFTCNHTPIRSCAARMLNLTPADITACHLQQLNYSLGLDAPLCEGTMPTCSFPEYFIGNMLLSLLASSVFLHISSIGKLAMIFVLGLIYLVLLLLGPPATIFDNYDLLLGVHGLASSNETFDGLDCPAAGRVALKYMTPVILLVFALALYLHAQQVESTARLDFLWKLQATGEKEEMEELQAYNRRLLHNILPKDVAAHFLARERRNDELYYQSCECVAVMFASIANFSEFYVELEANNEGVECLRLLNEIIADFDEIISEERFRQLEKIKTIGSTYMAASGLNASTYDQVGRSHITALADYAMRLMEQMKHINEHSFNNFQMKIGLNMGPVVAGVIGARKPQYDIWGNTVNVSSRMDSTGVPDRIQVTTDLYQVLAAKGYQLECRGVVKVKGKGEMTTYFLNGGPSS
UniProt P11507: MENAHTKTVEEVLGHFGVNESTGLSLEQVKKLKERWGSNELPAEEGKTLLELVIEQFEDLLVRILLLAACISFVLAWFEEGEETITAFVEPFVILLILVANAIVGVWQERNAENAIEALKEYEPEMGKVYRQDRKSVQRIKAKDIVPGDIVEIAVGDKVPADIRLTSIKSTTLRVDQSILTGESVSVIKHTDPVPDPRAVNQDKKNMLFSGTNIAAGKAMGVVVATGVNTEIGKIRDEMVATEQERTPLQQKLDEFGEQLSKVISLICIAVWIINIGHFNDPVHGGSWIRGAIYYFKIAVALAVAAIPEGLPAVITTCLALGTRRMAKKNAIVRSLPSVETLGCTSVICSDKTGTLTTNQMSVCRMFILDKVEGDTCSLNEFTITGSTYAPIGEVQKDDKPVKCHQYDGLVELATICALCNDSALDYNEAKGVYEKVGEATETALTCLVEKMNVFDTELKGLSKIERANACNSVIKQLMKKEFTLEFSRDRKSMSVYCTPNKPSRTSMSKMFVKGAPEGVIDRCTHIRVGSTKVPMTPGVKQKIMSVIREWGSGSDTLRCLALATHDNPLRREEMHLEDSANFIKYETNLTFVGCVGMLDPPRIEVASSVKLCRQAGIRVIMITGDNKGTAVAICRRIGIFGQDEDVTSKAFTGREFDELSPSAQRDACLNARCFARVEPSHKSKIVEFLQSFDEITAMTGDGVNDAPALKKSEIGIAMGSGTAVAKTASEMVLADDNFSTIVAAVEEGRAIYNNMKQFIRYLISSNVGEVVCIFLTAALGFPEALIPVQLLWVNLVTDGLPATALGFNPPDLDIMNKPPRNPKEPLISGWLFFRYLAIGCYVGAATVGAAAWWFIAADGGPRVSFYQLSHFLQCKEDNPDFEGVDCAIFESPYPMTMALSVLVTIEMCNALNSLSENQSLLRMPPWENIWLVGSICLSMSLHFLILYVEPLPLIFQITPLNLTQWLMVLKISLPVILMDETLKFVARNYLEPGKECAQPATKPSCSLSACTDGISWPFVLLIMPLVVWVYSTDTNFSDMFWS
UniProt P84903, residues 23-685: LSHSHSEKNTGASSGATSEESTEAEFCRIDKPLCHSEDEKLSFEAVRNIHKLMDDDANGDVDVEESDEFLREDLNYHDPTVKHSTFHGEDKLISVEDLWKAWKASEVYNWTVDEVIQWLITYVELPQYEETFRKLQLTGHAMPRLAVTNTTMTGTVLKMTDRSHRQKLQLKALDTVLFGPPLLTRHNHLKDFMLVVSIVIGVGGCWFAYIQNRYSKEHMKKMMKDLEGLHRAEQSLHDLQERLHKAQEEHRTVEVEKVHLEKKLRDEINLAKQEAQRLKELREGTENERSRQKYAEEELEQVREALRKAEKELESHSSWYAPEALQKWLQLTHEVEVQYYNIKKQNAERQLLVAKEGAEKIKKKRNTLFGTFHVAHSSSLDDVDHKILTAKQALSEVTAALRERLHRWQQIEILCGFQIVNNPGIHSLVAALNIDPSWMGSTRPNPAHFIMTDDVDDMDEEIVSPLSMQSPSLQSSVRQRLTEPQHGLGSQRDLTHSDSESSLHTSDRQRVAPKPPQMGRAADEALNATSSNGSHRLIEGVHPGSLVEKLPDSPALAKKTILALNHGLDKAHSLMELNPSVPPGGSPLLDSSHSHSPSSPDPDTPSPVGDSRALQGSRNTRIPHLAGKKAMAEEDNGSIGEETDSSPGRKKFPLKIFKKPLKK
UniProt Q04400: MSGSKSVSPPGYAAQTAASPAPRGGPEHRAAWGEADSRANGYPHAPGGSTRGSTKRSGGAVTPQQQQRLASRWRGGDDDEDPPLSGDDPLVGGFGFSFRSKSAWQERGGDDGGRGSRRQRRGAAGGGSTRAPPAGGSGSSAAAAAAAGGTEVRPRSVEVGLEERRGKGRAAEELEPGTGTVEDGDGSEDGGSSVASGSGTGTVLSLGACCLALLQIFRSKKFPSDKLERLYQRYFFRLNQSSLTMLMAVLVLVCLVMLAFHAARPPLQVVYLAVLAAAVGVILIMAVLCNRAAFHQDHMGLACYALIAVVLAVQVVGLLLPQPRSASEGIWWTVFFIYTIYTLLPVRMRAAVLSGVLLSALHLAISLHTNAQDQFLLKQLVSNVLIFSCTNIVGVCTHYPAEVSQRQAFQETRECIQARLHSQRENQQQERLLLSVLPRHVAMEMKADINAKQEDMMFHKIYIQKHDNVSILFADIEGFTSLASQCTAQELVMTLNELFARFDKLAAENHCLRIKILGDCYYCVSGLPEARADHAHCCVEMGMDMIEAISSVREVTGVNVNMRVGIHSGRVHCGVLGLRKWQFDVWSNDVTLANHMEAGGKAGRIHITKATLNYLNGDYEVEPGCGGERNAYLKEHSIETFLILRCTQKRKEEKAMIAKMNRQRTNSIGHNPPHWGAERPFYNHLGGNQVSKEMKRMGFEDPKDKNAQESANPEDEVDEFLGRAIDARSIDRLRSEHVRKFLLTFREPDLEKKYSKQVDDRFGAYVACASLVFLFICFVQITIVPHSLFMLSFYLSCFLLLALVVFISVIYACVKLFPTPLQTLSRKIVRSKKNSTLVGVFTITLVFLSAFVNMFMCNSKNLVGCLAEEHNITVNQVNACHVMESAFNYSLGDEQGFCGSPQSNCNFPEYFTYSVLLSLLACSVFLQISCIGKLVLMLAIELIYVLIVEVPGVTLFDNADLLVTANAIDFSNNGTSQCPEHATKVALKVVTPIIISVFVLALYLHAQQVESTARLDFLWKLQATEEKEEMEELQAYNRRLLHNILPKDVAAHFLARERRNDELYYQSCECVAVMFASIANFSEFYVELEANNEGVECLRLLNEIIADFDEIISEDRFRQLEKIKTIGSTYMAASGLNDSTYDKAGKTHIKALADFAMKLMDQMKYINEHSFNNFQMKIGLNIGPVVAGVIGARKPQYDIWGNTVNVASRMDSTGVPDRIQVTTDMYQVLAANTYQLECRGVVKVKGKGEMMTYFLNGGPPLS
UniProt Q03343: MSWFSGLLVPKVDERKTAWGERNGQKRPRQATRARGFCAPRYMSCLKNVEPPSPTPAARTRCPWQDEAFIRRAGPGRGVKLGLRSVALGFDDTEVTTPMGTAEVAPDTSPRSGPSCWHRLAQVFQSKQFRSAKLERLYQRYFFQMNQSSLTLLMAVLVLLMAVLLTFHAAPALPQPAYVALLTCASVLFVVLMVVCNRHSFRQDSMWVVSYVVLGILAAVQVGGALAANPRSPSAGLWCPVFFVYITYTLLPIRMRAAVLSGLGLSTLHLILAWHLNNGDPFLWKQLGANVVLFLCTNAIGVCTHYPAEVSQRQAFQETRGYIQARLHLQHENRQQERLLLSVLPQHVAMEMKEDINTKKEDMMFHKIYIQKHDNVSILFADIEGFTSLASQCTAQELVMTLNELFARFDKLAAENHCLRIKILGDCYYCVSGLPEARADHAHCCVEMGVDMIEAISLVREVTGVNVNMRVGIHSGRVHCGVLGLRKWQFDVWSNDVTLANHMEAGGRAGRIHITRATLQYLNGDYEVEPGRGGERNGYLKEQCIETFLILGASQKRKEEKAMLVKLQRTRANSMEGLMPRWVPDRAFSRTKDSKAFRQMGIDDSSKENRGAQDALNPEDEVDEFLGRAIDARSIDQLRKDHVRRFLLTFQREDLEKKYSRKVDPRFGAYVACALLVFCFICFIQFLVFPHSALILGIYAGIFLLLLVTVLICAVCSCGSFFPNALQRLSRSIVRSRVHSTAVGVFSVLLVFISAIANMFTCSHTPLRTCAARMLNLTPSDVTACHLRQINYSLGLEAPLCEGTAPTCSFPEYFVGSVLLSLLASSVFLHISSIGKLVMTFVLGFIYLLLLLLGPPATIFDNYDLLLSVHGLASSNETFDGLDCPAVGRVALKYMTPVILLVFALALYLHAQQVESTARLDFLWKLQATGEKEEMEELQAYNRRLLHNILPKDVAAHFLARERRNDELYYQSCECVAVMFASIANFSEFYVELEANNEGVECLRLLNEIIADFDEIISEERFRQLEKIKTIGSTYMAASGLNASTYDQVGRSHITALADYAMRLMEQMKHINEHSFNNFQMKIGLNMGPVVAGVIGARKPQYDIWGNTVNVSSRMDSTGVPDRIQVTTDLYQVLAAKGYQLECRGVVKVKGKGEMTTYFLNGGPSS

Assay [2] has as its target AC5-miniTurbo-FLAG fusion protein (human adenylyl cyclase 5) (human) (UniProt O95622). The assay is described as above.
Assay [3] has as its target T1, AC9-miniTurbo-FLAG fusion protein (human adenylyl cyclase 9) (human). In words: affinity purification with mass spectrometry; FLAG-MS: anti-FLAG M2 magnetic beads on lysates (0.1% NP-40, 100 mM KCl) of neonatal rat cardiomyocytes expressing AC-mT-FLAG, 2 to 3 h at 4 °C, SAINT against GFP-mT-FLAG.
Assay [4] addresses AC6-miniTurbo-FLAG fusion protein (human adenylyl cyclase 6) (human) (UniProt O43306). The assay is described as above.
The target of assay [5] is AC5-miniTurbo-FLAG fusion protein (human adenylyl cyclase 5) (human) (UniProt O95622). The assay is described as above.
The target of assay [6] is AC6-miniTurbo-FLAG fusion protein (human adenylyl cyclase 6) (human) (UniProt O43306). In words: proximity labelling; BioID: AC-miniTurbo-FLAG baits virally expressed in primary neonatal rat cardiomyocytes, vehicle or 48 h norepinephrine, 50 μM biotin 3 h, RIPA lysis, streptavidin pull-down, LC-MS/MS, SAINT score ≥0.7 against GFP-mT and uninfected controls.

No constants are given. Whether binding was seen depends on the method and setting. In cells and extracts the contact can be indirect. These calls come from enrichment with a bait or labelling near it, and not all partners need be listed. For some assays here: A no says only that the protein was not detected with the bait. For some assays here: Tags and fused reporters may be left off the sequences shown.

Regarding AKAP5 (from UniProt P24587 1-714), the values for the binding entry in assay [1] and in assay [2] were “binds” and “binds weakly”, respectively.

For the substance AKAP12 (from UniProt Q5QD51 1-1687), the binding entry in assay [2] is on record as “binds”.

Consider “ATP2A2 (sarco/endoplasmic reticulum Ca2+-ATPase 2) (from UniProt P11507 1-1043)”, for which the binding result in assay [3], in assay [4] and in assay [5] was “binds” throughout.

KCNQ1 (from UniProt Q9Z0N7 1-669): the binding result in assay [1] is reported as “binds weakly”.

Take ORAI1 (from UniProt Q5M848 1-304): the binding result in assay [6] and in assay [2] was “no binding” in each case.

STIM1 (from UniProt P84903 23-685): the binding result in assay [6] and in assay [2] was “binds” in each case.

In the case of desmoglein (DSG2), in assay [1], the binding entry is on record as “binds”.

Regarding “discs large MAGUK-scaffold protein 1 (DLG1) (from UniProt Q62696 1-911)”, the binding result in assay [2] is reported as “binds”.

On to dystroglycan (DAG1), for which, in assay [1], the binding entry is recorded as “binds”.

On to “endogenous AC5 (from UniProt Q04400 1-1262) (enzyme)”, for which the binding result is listed as “binds weakly” in assay [3], “binds” in assay [4] and “binds” in assay [6].

As for “endogenous AC6 (from UniProt Q03343 1-1166) (enzyme)”, the binding entry in assay [5] and in assay [2] was “binds” throughout.

As for “platelet-derived growth factor receptor alpha (from UniProt P20786 24-1088)”, the binding result in assay [2] was “binds”.

In the case of “ryanodine receptor 2 (RYR2) (from UniProt B0LPN4 1-4955)”, the binding result in assay [4] was “binds”.

With syntrophin alpha 1 (SNTA1), in assay [1], the binding result is reported as “binds”.

As to “vesicle-associated membrane protein 2 (VAMP2) (from UniProt P63045 1-116)”, the binding entry in assay [1] is listed as “binds”.
